Laboratory results taken from PMC6010280.

Experiments:
[1] = target: T1, intein-BHMT (betaine homocysteine S-methyltransferase) (R. norvegicus) (UniProt O09171); assay: affinity purification with mass spectrometry; intein-BHMT held on chitin beads; rat liver cytosol first passed over a bead-only and an intein column; 10 mM sodium phosphate pH 7.4, 5 mM EDTA, 0.1 mM EGTA, 4°C; bound proteins eluted with a 0-500 mM NaCl gradient (peak at 50-100 mM NaCl); LC-MS/MS; only the target purified
T1 sequence: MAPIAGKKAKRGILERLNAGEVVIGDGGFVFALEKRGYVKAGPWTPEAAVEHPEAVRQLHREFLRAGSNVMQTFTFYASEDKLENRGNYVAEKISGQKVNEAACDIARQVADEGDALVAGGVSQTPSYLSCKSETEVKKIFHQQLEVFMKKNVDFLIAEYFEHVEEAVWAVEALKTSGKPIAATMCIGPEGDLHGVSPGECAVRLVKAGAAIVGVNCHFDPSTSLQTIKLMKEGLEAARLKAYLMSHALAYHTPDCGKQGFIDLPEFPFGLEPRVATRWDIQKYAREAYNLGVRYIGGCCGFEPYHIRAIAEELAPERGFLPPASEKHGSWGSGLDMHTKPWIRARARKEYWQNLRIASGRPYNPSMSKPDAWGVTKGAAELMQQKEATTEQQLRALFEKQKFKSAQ

[2] = target: T1, intein-BHMT (betaine homocysteine S-methyltransferase) (R. norvegicus); assay: affinity purification with mass spectrometry; same intein-BHMT chitin column after the salt gradient; proteins recovered together with BHMT upon intein excision with 30 mM 2-mercaptoethanol, 48 h at 23°C (strong interactors); LC-MS/MS; only the target purified

Row | Binder | binding [1] | binding [2]
1 | Guanine nucleotide binding protein, alpha 14 (protein, UniProt Q5EAP4 1-355) MAGCCCLSAEEKESQRISAEIERQLRRDKKDARRELKLLLLGTGESGKSTFIKQMRIIHGSGYSDEDRKGFTKLVYQNIFTAMQAMIRAMDTLRIQYTCEQNKENAQIIREVEVDKVSAISRDQVAAIKQLWLDPGIQECYDRRREYQLSDSAKYYLTDIDRIAMPSFVPTQQDVLRVRVPTTGIIEYPFDLENIIFRMVDVGGQRSERRKWIHCFESVTSIIFLVALSEYDQVLAECDNENRMEESKALFKTIITYPWFLNSSVILFLNKKDLLEEKIMYSHLISYFPEYTGPKQDVKAARDFILKLYQDQNPDKEKVIYSHFTCATDTENIRFVFAAVKDTILQLNLREFNLV | binds | 
2 | Cytochrome P450 2B3 (entry P13107) (protein, UniProt P13107 1-491) MDTSVLLLLAVLLSFLLFLVRGHAKVHGHLPPGPRPLPLLGNLLQMDRGGFRKSFIQLQEKHGDVFTVYFGPRPVVMLCGTQTIREALVDHAEAFSGRGIIAVLQPIMQEYGVSFVNEERWKILRRLFVATMRDFGIGKQSVEDQIKEEAKCLVEELKNHQGVSLDPTFLFQCVTGNIICSIVFGERFDYRDRQFLRLLDLLYRTFSLISSFSSQMFEVYSDFLKYFPGVHREIYKNLKEVLDYIDHSVENHRATLDPNAPRDFIDTFLLHMEKEKLNHYTEFHHWNLMISVLFLFLAGTESTSNTLCYGFLLMLKYPHVAEKVQKEIDQVIGSQRVPTLDDRSKMPYTEAVIHEIQRFSDVSPMGLPCRITKDTLFRGYLLPKNTEVYFILSSALHDPQYFEQPDTFNPEHFLDANGALKKCEAFMPFSIGKRMCLGEGIARSELFLFFTTILQNYSVSSPVDPNTIDMTPKESGLAKVAPVYKICFVAR | binds | 
3 | Cytochrome P450 2B3 (entry Q6LCX1) (protein, UniProt P13107 1-491) MDTSVLLLLAVLLSFLLFLVRGHAKVHGHLPPGPRPLPLLGNLLQMDRGGFRKSFIQLQEKHGDVFTVYFGPRPVVMLCGTQTIREALVDHAEAFSGRGIIAVLQPIMQEYGVSFVNEERWKILRRLFVATMRDFGIGKQSVEDQIKEEAKCLVEELKNHQGVSLDPTFLFQCVTGNIICSIVFGERFDYRDRQFLRLLDLLYRTFSLISSFSSQMFEVYSDFLKYFPGVHREIYKNLKEVLDYIDHSVENHRATLDPNAPRDFIDTFLLHMEKEKLNHYTEFHHWNLMISVLFLFLAGTESTSNTLCYGFLLMLKYPHVAEKVQKEIDQVIGSQRVPTLDDRSKMPYTEAVIHEIQRFSDVSPMGLPCRITKDTLFRGYLLPKNTEVYFILSSALHDPQYFEQPDTFNPEHFLDANGALKKCEAFMPFSIGKRMCLGEGIARSELFLFFTTILQNYSVSSPVDPNTIDMTPKESGLAKVAPVYKICFVAR | binds | 
4 | DECR2 Peroxisomal 2,4-dienoyl-CoA reductase (protein, UniProt Q9Z2M4 1-292) MTQQPPDVEEDDCLSEYHHLFCPDLLQDKVAFITGGGSGIGFRIAEIFMRHGCHTVIVSRSLPRVSEAAKKLVAATGKRCLPLSMDVRVPPAVMAAVDQALKEFGKIDILINCAAGNFLCPASALSFNAFKTVVDIDTLGTFNVSRVLYEKFFRDHGGVIVNITATLSMRGQVLQLHAGAAKAAVDAMTRHLAVEWGPQNIRVNSLAPGAISGTEGLRRLGGPKASSKFKYLSSPIPRLGTKTEIAHSVLYLASPLASYVSGIVLVVDGGSWMTLPNDIGRLLEFESSSAKL | binds | 
5 | Proliferation-associated protein 2G4 (protein, UniProt Q6AYD3 1-394) MSGEDEQQEQTIAEDLVVTKYKMGGDIANRVLRSLVEASSSGVSVLSLCEKGDAMIMEETGKIFKKEKEMKKGIAFPTSISVNNCVCHFSPLKSDQDYILKEGDLVKIDLGVHVDGFIANVAHTFVIGVAQGSQVTGRKADVIKAAHLCAEAALRLVKPGNQNTQVTEAWNKVAHSFNCTPIEGMLSHQLKQHVIDGEKTIIQNPTDQQKKDHEKAEFEVHEVYAVDVLVSSGEGKAKDAGQRTTIYKRDPSKQYGLKMKTSRAFFSEVERRFDAMPFTLRAFEDEKKARMGVVECAKHELLQPFNVLYEKEGEFVAQFKFTVLLMPNGPMRITSGPFEPDLYKSEMEVQDAELKALLQSSASRKTQKKKKKKASKTAENATSGETLEENGAGD | binds | 
6 | Pre-mRNA splicing factor 6 (protein, UniProt A1A5S1 1-941) MNKKKKPFLGMPAPLGYVPGLGRGATGFTTRSDIGPARDANDPVDDRHAPPGKRTVGDQMKKNQAADDDDEDLNDTNYDEFNGYAGSLFSSGPYEKDDEEADAIYAALDKRMDERRKERREQREKEEIEKYRMERPKIQQQFSDLKRKLAEVTEEEWLSIPEVGDARNKRQRNPRYEKLTPVPDSFFAKHLQTGENHTSVDPRQTQFGGLNTPYPGGLNTPYPGGMTPGLMTPGTGELDMRKIGQARNTLMDMRLSQVSDSVSGQTVVDPKGYLTDLNSMIPTHGGDINDIKKARLLLKSVRETNPHHPPAWIASARLEEVTGKLQVARNLIMKGTEMCPKSEDVWLEAARLQPGDTAKAVVAQAVRHLPQSVRIYIRAAELETDIRAKKRVLRKALEHVPNSVRLWKAAVELEEPEDARIMLSRAVECCPTSVELWLALARLETYENARKVLNKARENIPTDRHIWITAAKLEEANGNTQMVEKIIDRAITSLRANGVEINREQWIQDAEECDRAGSVATCQAVMRAVIGIGIEEEDRKHTWMEDADSCVAHNALECARAIYAYALQVFPSKKSVWLRAAYFEKNHGTRESLEALLQRAVAHCPKAEVLWLMGAKSKWLAGDVPAARSILALAFQANPNSEEIWLAAVKLESENNEYERARRLLAKARSSAPTARVFMKSVKLEWVLGNITAAQELCEEALRHYEDFPKLWMMKGQIEEQGELMERAREAYNQGLKKCPHSTPLWLLLSRLEEKIGQLTRARAILEKSRLKNPKNPGLWLESVRLEYRAGLKNIANTLMAKALQECPNSGILWSEAVFLEARPQRKTKSVDALKKCEHDPHVLLAVAKLFWSERKITKAREWFHRTVKIDSDLGDAWAFFYKFELQHGTEEQQEEVRKRCENAEPRHGELWCAVSKDITNWQRKIGEILVLVAARIKNTF | binds | binds
7 | Phospholipid phosphatase-related protein type 1 (protein, UniProt Q6WAY2 1-325) MAVENNTQRSYSIIPCFIFVELVIMAGTVLLAYYFECTDTFQVHIQGFFCQDGDLMKPYPGTEEESFISPLVLYCVLAATPTAIIFIGEISMYFIKSTRESLIAEEKMILTGDCCYLSPLLRRIVRFIGVFAFGLFATDIFVNAGQVVTGHLTPYFLTVCQPNYTSTDCRAHHQFINNGNICTGDLEVIEKARRSFPSKHAALSIYSALYATMYITSTIKTKSSRLAKPVLCLGDLCTAFLTGLNRVSEYRNHCSDVIAGFILGTAVALFLGMCVVHNFKGTQGSASKPKPEDPRGVPLMAFPRIESPLETLSAQNHSASMTEVT | binds | binds
8 | LOC499754 protein (protein, UniProt B1H281 1-534) MKIHSEAAVEAQIQELRTITRLQEQCRGLQIQGVKEKTAQNKATMGLLRSNLRRGAHEWALAKKHDQWTTSKACGKDTSMRLAHCRSTMEVAREKLRKYVFDRVNTHNVLIHLVRRRGQKLEGLELELTSLRNQPEATKEELRQLQIIRQLENNIEKTMIKITTSQNIHALYKQLLDYLKKVLAEYPTELDKLQNLVANYHSELSDMTVMSQDAMMITDEVKRNMRQGEATFIEERRARENRLNQQKKLIDKIHTKETSEKYRRGRRDLDFPSNLMSMESMKVKKRESSVADIQYQTKVTTLVEKVKSAVQCSHLWDIAGRFLAQKTTEENLELQMEDCEERRTQLEALMKKLELEEAVLKFHQTPSSVGFSSLQKKMKNMLEEEEARLRQVQNNMNKSQQLLLVIQTGIDNLYIRLIGIAPQAFQKEIAVSDTLDVYGKLDYCEGKLMYLAERTQALSRNEEVDTKVRDSLESSTLKEKHNTRITFEDQEEDMIETFQFADVDHSYVPSRAEIKKQGQRLIEGKLKGAKKKKK | binds | 
9 | Eukaryotic translation elongation factor 1 beta 2 (protein, UniProt A6IPG1 1-225) MGFGDLKTPAGLQVLNDYLADKSYIEGYVPSQADVAVFEAISGPPPADLCHALRWYNHIKSYEKEKASLPGVKKSLGKYGPVSVADTTGSGAADAKDDDDIDLFGSDDEEESEDAKRLREERLAQYESKKAKKPAVVAKSSILLDVKPWDDETDMTKLEECVRSIQADGLVWGSSKLVPVGYGIKKLQIQCVVEDDKVGTDMLEEQITAFEDYVQSMDVAAFNKI | binds | 

No constants are given. Whether binding was seen depends on the method and setting. Binding seen in cells or lysates may run through a third protein. Here binding means that the protein was enriched with, or labelled near, the bait; the list need not be complete.
